These results are taken from publication PMC7819943, “Rice protein-binding microarrays: a tool to detect cis-acting elements near promoter regions in rice”.

The list shows a part of the results.

The target in this experiment is T1, OsSMF1 (Oryza sativa, UniProt Q6ZLB0 1-436).
T1 sequence: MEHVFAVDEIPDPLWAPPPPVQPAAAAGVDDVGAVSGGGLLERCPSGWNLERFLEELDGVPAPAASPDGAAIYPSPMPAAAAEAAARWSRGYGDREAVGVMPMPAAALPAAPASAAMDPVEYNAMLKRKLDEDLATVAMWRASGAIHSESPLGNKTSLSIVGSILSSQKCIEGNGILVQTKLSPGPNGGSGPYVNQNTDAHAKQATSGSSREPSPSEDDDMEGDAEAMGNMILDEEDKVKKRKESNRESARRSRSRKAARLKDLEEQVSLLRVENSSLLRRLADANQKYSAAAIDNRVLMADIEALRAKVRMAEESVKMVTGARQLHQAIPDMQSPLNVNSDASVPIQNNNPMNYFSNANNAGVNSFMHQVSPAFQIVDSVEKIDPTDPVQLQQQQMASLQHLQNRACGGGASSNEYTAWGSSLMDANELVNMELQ
As to the kind of experiment: protein-binding microarray (RPBM); PBS, 2% BSA, 51.3 ng/ul salmon testes DNA, 50 uM zinc acetate, 200 nM TF, 25 C, 1 h; high values mean tight binding. Conditions: protein: recombinant; tags: N-terminal polyhistidine and DsRed monomer fusion (pET32a); chain copies: 2; label: CyDye5-dUTP incorporated in the synthesized complementary strand; 3' TTTTT single-stranded linker to array surface; dsDNA, one strand shown. Summed up: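 Per-feature fluorescence intensity (arbitrary units), read on an Axon 4000B scanner, is the binding signal. Transcription factors carrying an N-terminal polyhistidine tag and DsRed fusion were expressed in E. coli BL21-CodonPlus and purified on Ni–NTA. A custom Agilent array, made double-stranded by primer extension with Cy5-dUTP and blocked with 2% BSA, was incubated with 200 nM protein in PBS, 2% BSA, salmon testes DNA and 50 µM zinc acetate at 25 °C for 1 h and then washed.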
Regarding “CACGTCGCGCCCATGCACGGTGACACCACGCCACGCCACCCGGAGTCACCTAGTGCAG”, the binding signal is 8040 fluorescence intensity (a.u.).

As for “GCCGTGGCGATGCCTGCGTTGGATCTCTACCTTCGCCTCCCGGAGTCACCTAGTGCAG”, the binding signal was 32800 fluorescence intensity (a.u.).

As for “CCAAGTGTCCGCCGCCGCGTCGTGTCGCGTCGCGTCGCTCCGGAGTCACCTAGTGCAG”, the binding signal is 3610 fluorescence intensity (a.u.).

As for “GGCTCTAGGTCCGCCCATGTTGTGAACTGATGTATCACACCGGAGTCACCTAGTGCAG”, the binding signal was 3350 fluorescence intensity (a.u.).

In the case of “TTCCCTAAAAGAAATCCATTTGTGGATTGAATCAGCTCAGCGGAGTCACCTAGTGCAG”, the binding signal is 3460 fluorescence intensity (a.u.).

For the sequence “ACACCAACTGTCGTAACGGTCAAAGCACCAACGTACGTCACGGAGTCACCTAGTGCAG”, the binding signal was 3640 fluorescence intensity (a.u.).

“AGAAAACCTACACCCCGGGCTTCCGTTGCAACGTGACAACCGGAGTCACCTAGTGCAG”: the binding signal was 13300 fluorescence intensity (a.u.).

Regarding “GGAGAGCACGCTGATGGTGCTGACTCAAAGGATGAAAGAGCGGAGTCACCTAGTGCAG”, the binding signal is 4640 fluorescence intensity (a.u.).

On to “TTCTCGAGGACTATGAAGACCAAGGAGTCATGAGTAGTGACGGAGTCACCTAGTGCAG”, for which the binding signal is 3200 fluorescence intensity (a.u.).

Take “TTCCCGGTCTCTTATTATCCATATCATAAGTAAATTAGTTCGGAGTCACCTAGTGCAG”: the binding signal is 7670 fluorescence intensity (a.u.).

With “CACTATATCAATGACACGTGGGTCTACATGTGTCTATGACCGGAGTCACCTAGTGCAG”, the binding signal is 7680 fluorescence intensity (a.u.).

In the case of “TGACGAATCTACGGATACGCGACGTGTCACGTGTGCGGCACGGAGTCACCTAGTGCAG”, the binding signal is 6230 fluorescence intensity (a.u.).

With “CCGGTTCGAACCCCGTGCCGCGTCGGAAGCTTCTGGATCCCGGAGTCACCTAGTGCAG”, the binding signal is 3240 fluorescence intensity (a.u.).

As for “CCGTCCGCGCGTCGTCAAATCACACCCTGCAGCGCCGCCTCGGAGTCACCTAGTGCAG”, the binding signal is 3270 fluorescence intensity (a.u.).

As for “TAATCCCTCCTGTTTGGGACTCTAGGGACTTAAAGTGACTCGGAGTCACCTAGTGCAG”, the binding signal is 38100 fluorescence intensity (a.u.).

As to “CCCGCTGTTCTCTCTCATCTTTTATCTCATTAAAATATGTCGGAGTCACCTAGTGCAG”, the binding signal was 4450 fluorescence intensity (a.u.).

Consider “CCATTCTAGACGATGTGGCACCTTATTTGTACGATTTCCGCGGAGTCACCTAGTGCAG”, for which the binding signal was 5170 fluorescence intensity (a.u.).

“AGCGTTCATCAGGACACGTGTACGGTGGAGGTTAATCAGGCGGAGTCACCTAGTGCAG”: the binding signal was 9840 fluorescence intensity (a.u.).

In the case of “CTGCTGTCTTGCTGATCACACCTTTCCTCGTCGTGGCCGTCGGAGTCACCTAGTGCAG”, the binding signal was 3150 fluorescence intensity (a.u.).

For “AACACGGCCGCCCTCGCCACGTCTTCCACCTCCAGCGATGCGGAGTCACCTAGTGCAG”, the binding signal was 6200 fluorescence intensity (a.u.).

For the sequence “GGTTTTAATGGGTAGAAGATCTTGACGCATCCTAGTCCACCGGAGTCACCTAGTGCAG”, the binding signal is 3290 fluorescence intensity (a.u.).

Turning to “CACGGTCAGAGATAAATTTTGGGATTTTGTTTGATGCCAGCGGAGTCACCTAGTGCAG”, the binding signal is 3230 fluorescence intensity (a.u.).

Take “AGGAGAAACACGTCAGCTACAGTGTTGAGCTAGATGAGTGCGGAGTCACCTAGTGCAG”: the binding signal was 13600 fluorescence intensity (a.u.).

“ATTCCTTGCCTCCCCACGACGCGTTTCTTCGTGAGCTGTACGGAGTCACCTAGTGCAG”: the binding signal was 3770 fluorescence intensity (a.u.).

In the case of “AACAAAAGTTGTTTTGACTCACGCGGTGGCTGTTGTCTGTCGGAGTCACCTAGTGCAG”, the binding signal is 6340 fluorescence intensity (a.u.).

As for “ATAATCTCACCCAAAATACACGCAATCTCACGCCATTTGCCGGAGTCACCTAGTGCAG”, the binding signal was 3310 fluorescence intensity (a.u.).

Turning to “CCCACGGACACCGCGCGCCCCACATAACCCCATGACCCGGCGGAGTCACCTAGTGCAG”, the binding signal is 3160 fluorescence intensity (a.u.).

Consider “GCGTGCGCGCTACTTATTACTGAGCTGGCGCGCCTAGGCACGGAGTCACCTAGTGCAG”, for which the binding signal was 3950 fluorescence intensity (a.u.).

As to “GACGCGCGGTGGGCGCACATCGTGTACGCGTTGTTGGTGCCGGAGTCACCTAGTGCAG”, the binding signal is 3260 fluorescence intensity (a.u.).

With “ACTCGCCACTTCTCGGTTGTCACGCCTCTCTTTCGTACCGCGGAGTCACCTAGTGCAG”, the binding signal is 3540 fluorescence intensity (a.u.).

For the sequence “CAACAGTTAAACTGTCTGTTCCTGACAGGTCATCTCCTGACGGAGTCACCTAGTGCAG”, the binding signal is 6070 fluorescence intensity (a.u.).

Take “GCCAGGCACGCGAAGTCGCCACGCGGAGACACACGCGGACCGGAGTCACCTAGTGCAG”: the binding signal was 5310 fluorescence intensity (a.u.).

For the sequence “GGAGGCGGCCGCGGCCGCGGCCGCCATGGCGAGCTGGGTGCGGAGTCACCTAGTGCAG”, the binding signal was 3400 fluorescence intensity (a.u.).

As to “CCTTTCGTTGTGACACGACACGTTGATTATTGCGATCGAACGGAGTCACCTAGTGCAG”, the binding signal was 3740 fluorescence intensity (a.u.).

As for “CTCACTGACGTAGGTTTATTGTACCTATTCTAATTAAGGCCGGAGTCACCTAGTGCAG”, the binding signal was 39400 fluorescence intensity (a.u.).

On to “GGTCCATCCGCTGTTCCTGCTAGTCATATAGGTGACTCGGCGGAGTCACCTAGTGCAG”, for which the binding signal was 4150 fluorescence intensity (a.u.).

For “TTGACAATCTGAAGGCAACCTCTTCATATCTTCTTTCCAACGGAGTCACCTAGTGCAG”, the binding signal is 3590 fluorescence intensity (a.u.).

As to “CGGCGGCTACGTGCTGACCCAGGAGGTGATGGACAGCATGCGGAGTCACCTAGTGCAG”, the binding signal is 3390 fluorescence intensity (a.u.).

For the sequence “ATGAACAGTAGTAGTGACGTTAGGCAGGAGAGGGTGAGGTCGGAGTCACCTAGTGCAG”, the binding signal was 3670 fluorescence intensity (a.u.).

On to “CGGCGGCGGCGTCATGTCCTTTGCAATCAGCGGACAGTGGCGGAGTCACCTAGTGCAG”, for which the binding signal is 3610 fluorescence intensity (a.u.).

Regarding “GGACAGGCTGATGTCACCGCCGCCGCCGCCGCCGAGCAAGCGGAGTCACCTAGTGCAG”, the binding signal is 7850 fluorescence intensity (a.u.).

Turning to “ACCGTAGCCCACCTGTCAGTGACACAGCCCCACTCCCACCCGGAGTCACCTAGTGCAG”, the binding signal was 6310 fluorescence intensity (a.u.).
